# Measurements reported in IntAct's records for PubMed 21326211.
# B1: Proline-, glutamic acid- and leucine-rich protein 1 (Homo sapiens), Q8IZL8 (parent)
# chain: MAAAVLSGPSAGSAAGVPGGTGGLSAVSSGPRLRLLLLESVSGLLQPRTGSAVAPVHPPNRSAPHLPGLMCLLRLHGSVGGAQNLSALGALVSLSNARLSSIKTRFEGLCLLSLLVGESPTELFQQHCVSWLRSIQQVLQTQDPPATMELAVAVLRDLLRYAAQLPALFRDISMNHLPGLLTSLLGLRPECEQSALEGMKACMTYFPRACGSLKGKLASFFLSRVDALSPQLQQLACECYSRLPSLGAGFSQGLKHTESWEQELHSLLASLHTLLGALYEGAETAPVQNEGPGVEMLLSSEDGDAHVLLQLRQRFSGLARCLGLMLSSEFGAPVSVPVQEILDFICRTLSVSSKNISLHGDGPLRLLLLPSIHLEALDLLSALILACGSRLLRFGILIGRLLPQVLNSWSIGRDSLSPGQERPYSTVRTKVYAILELWVQVCGASAGMLQGGASGEALLTHLLSDISPPADALKLRSPRGSPDGSLQTGKPSAPKKLKLDVGEAMAPPSHRKGDSNANSDVCAAALRGLSRTILMCGPLIKEETHRRLHDLVLPLVMGVQQGEVLGSSPYTSSRCRRELYCLLLALLLAPSPRCPPPLACALQAFSLGQREDSLEVSSFCSEALVTCAALTHPRVPPLQPMGPTCPTPAPVPPPEAPSPFRAPPFHPPGPMPSVGSMPSAGPMPSAGPMPSAGPVPSARPGPPTTANHLGLSVPGLVSVPPRLLPGPENHRAGSNEDPILAPSGTPPPTIPPDETFGGRVPRPAFVHYDKEEASDVEISLESDSDDSVVIVPEGLPPLPPPPPSGATPPPIAPTGPPTASPPVPAKEEPEELPAAPGPLPPPPPPPPPVPGPVTLPPPQLVPEGTPGGGGPPALEEDLTVININSSDEEEEEEEEEEEEEEEEEEEEEDFEEEEEDEEEYFEEEEEEEEEFEEEFEEEEGELEEEEEEEDEEEEEELEEVEDLEFGTAGGEVEEGAPPPPTLPPALPPPESPPKVQPEPEPEPGLLLEVEEPGTEEERGADTAPTLAPEALPSQGEVEREGESPAAGPPPQELVEEEPSAPPTLLEEETEDGSDKVQPPPETPAEEEMETETEAEALQEKEQDDTAAMLADFIDCPPDDEKPPPPTEPDS
# Variants of: B1
# Settings: with sumo2_human SUMO2, P61956
row,Variant,effect of a mutation on the interaction
1,V880A,disrupting interaction
2,I881A,disrupting interaction

# Variants of: B1
# Settings: with sumo2_human SUMO2, P61956
# Remark: another data set of the same source
row,Variant,effect of a mutation on the interaction
1,I790A,disrupting interaction
2,V791A,disrupting interaction

# Variants of: B1
# Settings: with sumo2_human SUMO2, P61956
# Remark: another data set of the same source
row,Variant,effect of a mutation on the interaction
1,I790A,decreasing interaction
2,V791A,decreasing interaction
